Reference: US20100234238A1, “METHOD FOR PROFILING KINASE INHIBITORS” (Janssen Pharmaceutica N V, priority 2006, published 2010)
This continues a long series; more values of the same kind are listed elsewhere.

System: tyrosine kinase activity in lysates prepared from cell lines
Assay: PAMCHIP96 tyrosine peptide array profiling of lysates of 27 cell lines in absence or presence of MTKI
Format: biochemical
Conditions: 5 μM
Description: PAMGENE technology using the tyrosine peptide PAMCHIP96 allows the kinetic detection of the phosphorylation of 144 tyrosine peptides spotted onto a 3-dimensional porous well of a 96-well plate (www.pamgene.com). This technology can be used to measure the activity of purified kinases and the effects of kinase inhibitors thereon. Phosphotyrosine peptides are detected using a mix of fluorescently labeled anti-phosphotyrosine antibodies. Phosphorylation of peptides can be followed in real time due to the possibility of removing the reaction mix for a few seconds during the assay by a pumping mechanism to allow CCD camera detection of phosphopeptides bound to the fluorescent antibody. These consecutive datapoints (quantified spot images) generate a kinetic curve for each individual peptide, and allow for the calculation of initial velocities and endpoints associated with each individual peptide.
Cells cultured in appropriate medium in T175 flasks, treated with compound if necessary, are harvested at 70-90% confluency.
Media is removed, cells are washed with 10 ml ice cold PBS containing 0.1 mM NaVO4 and lysed in 1 ml of M-PER buffer (PIERCE) containing phosphatase and protease inhibitors (HALT, PIERCE). Cells are collected by scraping, and centrifuged for 10 minutes at 12 000×g. Supernatant lysates are filtered through a 0.2 micrometer filter (Anotop 0.2 μm anopore filter; Whatmann). Lysates are flash frozen in liquid nitrogen and stored at −80C.
Just prior to the PAMCHIP experiment, total protein content is quantitated in the lysates and lysates are diluted to 1 mg/ml in a total volume of 200 μl, with M-PER phosphatase and protease inhibitors (HALT, PIERCE). 10 μg of total lysate (corresponding to 10 μl) will be used per well on the PAMCHIP96.
To all 200 μl lysates 10 units of benzonase (Novagen) is added and lysates are further incubated for 30 min on ice and next centrifuged for 10 minutes at 12 000×g. The supernatant is then 1:1 diluted with compound or DMSO diluted to the appropriate concentration in water, and lysates are further incubated exactly 60 min on ice. Meanwhile, a PAMCHIP96 tyrosine peptide chip (PAMGENE) is blocked with 2% BSA (filtered through a 0.2 μm anopore filter; Whatmann) using the standard setting of a PAMSTATION96 (PAMGENE).
The composition of the kinase buffer is as follows: 1×ABL buffer (NEB), 0.5 mg/ml BSA (from 10 mg/ml NEB stock), 100 μM ATP (dissolved and diluted in 1×ABL buffer), 5 μg/ml PY20-FITC (ExAlpha Biologicals, azide-free preparation). A twofold concentrated kinase buffer is prepared chilled on ice, DMSO or compound is added as appropriate, and the solution is added 1:1 to the (compound treated) ice cold lysates, and immediately applied to a tyrosine peptide PAMCHIP96. The assay is run on a PAMSTATION96 according to standard procedures: after loading of the plate, solution is pumped once onto the wells, a first exposure is read (150 mSec) and then a kinetic reading program (reading every 5 min for 150 mSec) is run for 60 min. Lysates are run in 6 technical replicates for each condition; replicates are always applied horizontally next to each other to avoid vertical strip effects of the chip.
The data (spot images) are further quantified and linked to the peptide identities using EVOLVE PAMGRID software (PAMGENE). The quantified data are then fit to a curve using CurveFitHT software (PAMGENE) using the Vinip2 curve fitting algorithm, applied on the first 30 min of the assay; the initial velocity is derived at the first kinetic time point read. All subsequent data analyses were done on initial velocities (Vini) using the software packages Omniviz and R (Ihaka, R. and Gentlemen, R. (1996) R: a language for data analysis and graphics. J. Comput. Graph. Stat., 5, 299-314).
After replacing the Vini's lower than 0.1 by 0.1, all Vini's were log 2-transformed to approach normality.

COc1cc2ncnc3c2cc1OCCCCCN(C)Cc1ccc(Br)cc1N3 [MTKI, 4,6-ethanediylidenepyrimido[4,5-b][6,1,12]benzoxadiazacyclopentadecine, 17-bromo-8,9,10,11,12,13,14,19-octahydro-20-methoxy-13-methyl-]
ratio of initial velocity of peptide phosphorylation (A431 lysate, ENOG_37_49_Y43): 0.83
ratio of initial velocity of peptide phosphorylation (A431 lysate, GSK3B_209_221_Y216): 0.56
ratio of initial velocity of peptide phosphorylation (BT474OD lysate, CDK7_157_169_S164): 0.74
ratio of initial velocity of peptide phosphorylation (BT474OD lysate, CREB1_122_134_Y134/S133): 0.90
ratio of initial velocity of peptide phosphorylation (BT474OD lysate, DDR2_733_745_Y740): 0.83
ratio of initial velocity of peptide phosphorylation (BT474OD lysate, ENOG_37_49_Y43): 0.55
ratio of initial velocity of peptide phosphorylation (BT474OD lysate, GSK3B_209_221_Y216): 0.87
ratio of initial velocity of peptide phosphorylation (BT474OD lysate, MK10_216_228_T221/Y223): 0.76
ratio of initial velocity of peptide phosphorylation (BT474OD lysate, NCF1_313_325_S315/S320): 0.88
ratio of initial velocity of peptide phosphorylation (BT474OD lysate, NPT2_501_513_T508): 0.77
ratio of initial velocity of peptide phosphorylation (BT474OD lysate, PECA1_706_718_Y713): 0.51
ratio of initial velocity of peptide phosphorylation (BT474OD lysate, PLCG1_764_776_Y771): 0.68
ratio of initial velocity of peptide phosphorylation (BT474OD lysate, PRRX2_202_214_Y214): 0.56
ratio of initial velocity of peptide phosphorylation (BT474OD lysate, RASA1_453_465_Y460): 0.61
ratio of initial velocity of peptide phosphorylation (BT474OD lysate, STAT2_683_695_Y690): 0.91
ratio of initial velocity of peptide phosphorylation (BT474OD lysate, SYN1_2_14_S9): 0.94
ratio of initial velocity of peptide phosphorylation (BT474OD lysate, TYRO3_679_691_Y686): 0.88
ratio of initial velocity of peptide phosphorylation (Colo699 lysate, CDK7_157_169_S164): 0.93
ratio of initial velocity of peptide phosphorylation (Colo699 lysate, CREB1_122_134_Y134/S133): 0.86
ratio of initial velocity of peptide phosphorylation (Colo699 lysate, DDR2_733_745_Y740): 1.20
ratio of initial velocity of peptide phosphorylation (Colo699 lysate, ENOG_37_49_Y43): 0.86
ratio of initial velocity of peptide phosphorylation (Colo699 lysate, GSK3B_209_221_Y216): 1.03
ratio of initial velocity of peptide phosphorylation (Colo699 lysate, MK10_216_228_T221/Y223): 0.86
ratio of initial velocity of peptide phosphorylation (Colo699 lysate, NCF1_313_325_S315/S320): 0.93
ratio of initial velocity of peptide phosphorylation (Colo699 lysate, NPT2_501_513_T508): 0.95
ratio of initial velocity of peptide phosphorylation (Colo699 lysate, PECA1_706_718_Y713): 0.83
ratio of initial velocity of peptide phosphorylation (Colo699 lysate, PGFRB_768_780_Y771/Y775/Y778): 0.23
ratio of initial velocity of peptide phosphorylation (Colo699 lysate, PLCG1_764_776_Y771): 0.78
ratio of initial velocity of peptide phosphorylation (Colo699 lysate, PRRX2_202_214_Y214): 0.76
ratio of initial velocity of peptide phosphorylation (Colo699 lysate, RASA1_453_465_Y460): 0.81
ratio of initial velocity of peptide phosphorylation (Colo699 lysate, STAT2_683_695_Y690): 0.93
ratio of initial velocity of peptide phosphorylation (Colo699 lysate, SYN1_2_14_S9): 0.95
ratio of initial velocity of peptide phosphorylation (Colo699 lysate, TYRO3_679_691_Y686): 1.18
ratio of initial velocity of peptide phosphorylation (DU145 lysate, CDK7_157_169_S164): 0.63
ratio of initial velocity of peptide phosphorylation (DU145 lysate, CREB1_122_134_Y134/S133): 0.93
ratio of initial velocity of peptide phosphorylation (DU145 lysate, DDR2_733_745_Y740): 0.71
ratio of initial velocity of peptide phosphorylation (DU145 lysate, ENOG_37_49_Y43): 0.65
ratio of initial velocity of peptide phosphorylation (DU145 lysate, GSK3B_209_221_Y216): 0.94
ratio of initial velocity of peptide phosphorylation (DU145 lysate, MK10_216_228_T221/Y223): 0.66
ratio of initial velocity of peptide phosphorylation (DU145 lysate, NCF1_313_325_S315/S320): 0.87
ratio of initial velocity of peptide phosphorylation (DU145 lysate, NPT2_501_513_T508): 0.90
ratio of initial velocity of peptide phosphorylation (DU145 lysate, PECA1_706_718_Y713): 0.73
ratio of initial velocity of peptide phosphorylation (DU145 lysate, PGFRB_768_780_Y771/Y775/Y778): 0.39
ratio of initial velocity of peptide phosphorylation (DU145 lysate, PLCG1_764_776_Y771): 0.76
ratio of initial velocity of peptide phosphorylation (DU145 lysate, PRRX2_202_214_Y214): 0.68
ratio of initial velocity of peptide phosphorylation (DU145 lysate, RASA1_453_465_Y460): 0.69
ratio of initial velocity of peptide phosphorylation (DU145 lysate, STAT2_683_695_Y690): 0.93
ratio of initial velocity of peptide phosphorylation (DU145 lysate, SYN1_2_14_S9): 0.92
ratio of initial velocity of peptide phosphorylation (DU145 lysate, TYRO3_679_691_Y686): 0.68
ratio of initial velocity of peptide phosphorylation (GTL16 lysate, CDK7_157_169_S164): 0.98
ratio of initial velocity of peptide phosphorylation (GTL16 lysate, CREB1_122_134_Y134/S133): 0.91
ratio of initial velocity of peptide phosphorylation (GTL16 lysate, DDR2_733_745_Y740): 1.00
ratio of initial velocity of peptide phosphorylation (GTL16 lysate, ENOG_37_49_Y43): 0.80
ratio of initial velocity of peptide phosphorylation (GTL16 lysate, GSK3B_209_221_Y216): 1.11
ratio of initial velocity of peptide phosphorylation (GTL16 lysate, MK10_216_228_T221/Y223): 0.96
ratio of initial velocity of peptide phosphorylation (GTL16 lysate, NCF1_313_325_S315/S320): 0.96
ratio of initial velocity of peptide phosphorylation (GTL16 lysate, NPT2_501_513_T508): 0.89
ratio of initial velocity of peptide phosphorylation (GTL16 lysate, PECA1_706_718_Y713): 0.95
ratio of initial velocity of peptide phosphorylation (GTL16 lysate, PGFRB_768_780_Y771/Y775/Y778): 0.75
ratio of initial velocity of peptide phosphorylation (GTL16 lysate, PLCG1_764_776_Y771): 0.90
ratio of initial velocity of peptide phosphorylation (GTL16 lysate, PRRX2_202_214_Y214): 0.97
ratio of initial velocity of peptide phosphorylation (GTL16 lysate, RASA1_453_465_Y460): 0.81
ratio of initial velocity of peptide phosphorylation (GTL16 lysate, STAT2_683_695_Y690): 1.06
ratio of initial velocity of peptide phosphorylation (GTL16 lysate, SYN1_2_14_S9): 0.91
ratio of initial velocity of peptide phosphorylation (GTL16 lysate, TYRO3_679_691_Y686): 0.92
ratio of initial velocity of peptide phosphorylation (H23 lysate, CDK7_157_169_S164): 0.92
ratio of initial velocity of peptide phosphorylation (H23 lysate, CREB1_122_134_Y134/S133): 1.02
ratio of initial velocity of peptide phosphorylation (H23 lysate, DDR2_733_745_Y740): 0.81
ratio of initial velocity of peptide phosphorylation (H23 lysate, ENOG_37_49_Y43): 0.80
ratio of initial velocity of peptide phosphorylation (H23 lysate, GSK3B_209_221_Y216): 1.09
ratio of initial velocity of peptide phosphorylation (H23 lysate, MK10_216_228_T221/Y223): 0.98
ratio of initial velocity of peptide phosphorylation (H23 lysate, NCF1_313_325_S315/S320): 0.86
ratio of initial velocity of peptide phosphorylation (H23 lysate, NPT2_501_513_T508): 0.91
ratio of initial velocity of peptide phosphorylation (H23 lysate, PECA1_706_718_Y713): 0.62
ratio of initial velocity of peptide phosphorylation (H23 lysate, PLCG1_764_776_Y771): 0.84
ratio of initial velocity of peptide phosphorylation (H23 lysate, PRRX2_202_214_Y214): 0.67
ratio of initial velocity of peptide phosphorylation (H23 lysate, RASA1_453_465_Y460): 0.71
ratio of initial velocity of peptide phosphorylation (H23 lysate, STAT2_683_695_Y690): 0.93
ratio of initial velocity of peptide phosphorylation (H23 lysate, SYN1_2_14_S9): 1.01
